Laboratory results reported in US20120149881A1.

B1: humanized anti-IgE/M1′ antibody 7A6.v1 (antibody, V domains shown)
VH: EVQLVESGGGLVQPGGSLRLSCAASGYTFIDYEMHWVRQAPGKGLEWVGAIDPETGTTAYNQKFKGRFTISADTSKNTAYLQMNSLRAEDTAVYYCTRLRPHYDYDNAMDSWGQGTLVTVSS
VL: DIQMTQSPSSLSASVGDRVTITCKSSQTLLYSTNQKNYLAWYQQKPGKAPKLLIYWASTRESGVPSRFSGSGSGTDFTLTISSLQPEDFATYYCQQYYSYPYTFGQGTKVEIKR
B2: humanized anti-IgE/M1′ antibody 47H4.v5 (antibody, V domains shown)
VH: EVQLVESGGGLVQPGGSLRLSCAASGFTFSDYGIAWVRQAPGKGLEWVAFISDLAYTIYYADTVTGRFTISRDNSKNTLYLQMNSLRAEDTAVYYCARDNWDAMDYWGQGTLVTVSS
VL: DIQMTQSPSSLSASVGDRVTITCRSSQSLVHNNANTYLHWYQQKPGKAPKLLIYKVSNRFSGVPSRFSGSGSGTDFTLTISSLQPEDFATYYCSQNTLVPWTFGQGTKVEIKR
B3: humanized anti-IgE/M1′ antibody 26A11.v6 (antibody, V domains shown)
VH: EVQLVESGGGLVQPGGSLRLSCAASGYTFTDYYIMWVRQAPGKGLEWVGDINPNNYDTSYNQKFKGRFTISADTSKNTAYLQMNSLRAEDTAVYYCASKAYWGQGTLVTVSS
VL: DIQMTQSPSSLSASVGDRVTITCRSSQDISNYLNWYQQKPGKAPKLLIYSTSRLHSGVPSRFSGSGSGTDFTLTISSLQPEDFATYYCQQGHTLPWTFGQGTKVEIKR
B4: murine anti-IgE/M1′ antibody 7A6 (antibody, V domains shown)
VH: QVQLQQSGAELVRPGASVTLSCKASGYTFIDYEMHWVKQTPVHGLEWIGAIDPETGTTAYNQKFKGKATLTAAKSSSTAYMELRSLTSEDSAVYYCTRLRPHYDYDNAMDSWGQGTTLTVSS
VL: DIVMSQSPSSLTVSVGEKVTLSCKSSQTLLYSTNQKNYLAWYQQKPGQSPKLLIYWASTRESGVPDRFTGSGSGTDFTLTISSVKAEDLAVYYCQQYYSYPYTFGGGTKVEIKR
B5: murine anti-IgE/M1′ antibody 47H4 (antibody, V domains shown)
VH: EVKLVESGGGLVQPGGSRKLSCAASGFTFSDYGMAWVRQAPGKGPEWVAFISDLAYTIYYADTVTGRFTISRENAKNTLYLEMSSLRSEDTALYYCARDNWDAMDYWGQGTSVTVSS
VL: DIVLTQTPLSLPVSLGDQASISCRSSQSLVHNNGNTYLHWYLQKPGQSPKLLIYKVSNRFSGVPDRFSGSGSGTDFTLKISRLEAEDLGVYFCSQNTLVPWTFGGGTKVEIKR
B6: murine anti-IgE/M1′ antibody 26A11 (antibody, V domains shown)
VH: EVQLQQSGPELVKPGASVKMSCKASGYTFTDYYMMWVKQSHGKSLEWIGDINPNNYDTSYNQKFKGKATLTVDKSSSTAYIQLNSLTSEDSAVYYCASKAYWGQGTLVTVSA
VL: DIQMTQTTSSLSASLGDRVTITCRSSQDISNSLNWYQQKPDGPVKLLIYSTSRLHSGVPSRFSGSGSGTDYSLTISNLEQEDLATYFCQQGHTLPWTFGGGTKVEIKR

Target: U266 IgE (Homo sapiens)
Assay: ELISA on coated antigen, relative OD450/650

binding, no binding:
B1
B2
B3
B4
B5
B6

Results are given in words; binding and its absence hold for the method and conditions named. Tags and fused reporters may be left off the sequences shown.
